Laboratory results published in patent publication US8795997B2 (priority 2009, dated 2014).

How the values were obtained:
[1] = system: yeast Saccharomyces cerevisiae; test: Simultaneous saccharification and fermentation (SSF) of sugarcane bagass slurry; format: cell-based; settings: 7.5 and 10 mM
Method: The pretreatment of sugarcane bagass for SSF experiments was performed in the Swedish cellulosic ethanol pilot plant (operated by SEKAB E-Technology, Örnskoldsvik, Sweden). Sugarcane bagass was treated in a continuous mode in a 30-liter reactor at a temperature of 198-199° C. and with a residence time of 13-14 min. The feed rate was 24 kg (dry weight) per h and the bagass was impregnated with sulfur dioxide (0.5 kg/h). The pH after pretreatment was 2.7. The dry matter content was 19%. The pretreated material was cooled and stored at 4° C. until further use.
SSF experiments were also performed with sugarcane bagass slurries. The sugarcane bagass slurries were prepared as described in Example 1. Reducing agents, dithionite and sulphite, respectively, were added 10 min prior to inoculum in concentrations of studied 7.5 and 10 mM. The ethanol concentration was measured after 13 and 45 hours according to the protocol described in Example 1.

[2] = 5 mM added, pH 5.5, 23° C., 10 min
[3] = 10 mM added, pH 5.5, 23° C., 10 min
[4] = ammonium hydroxide detoxification, pH 9, 55° C., 3 h

Compound	Formation of precipitates [1]	Concentration of Arabin. (arabinose) [2]	Concentration of Galact (galactose) [2]	Concentration of HMF (2-hydroxymethylfurfural) [2]	Concentration of Phen. (phenolic compounds) [2]	Concentration of acetic acid [2]	Concentration of formic acid [2]	Concentration of furfural [2]	Concentration of glucose [2]	Concentration of levulinic acid [2]	Concentration of mannose [2]	Concentration of xylose [2]	Concentration of Arabin. (arabinose) [3]	Concentration of Galact (galactose) [3]	Concentration of HMF (2-hydroxymethylfurfural) [3]	Concentration of Phen. (phenolic compounds) [3]	Concentration of acetic acid [3]	Concentration of formic acid [3]	Concentration of furfural [3]	Concentration of glucose [3]	further results
O=S([O-])S(=O)[O-].[Na+].[Na+] [Dithionite, Sodium dithionite]	did not lead to any formation of precipitates	0.2 ± 0.1 g/L	9.4 ± 0.1 g/L	3.0 ± 0.1 g/L	0.62 ± 0.01 g/L	3.4 ± 0.1 g/L	0.7 ± 0.1 g/L	0.9 ± 0.1 g/L	85.3 ± 0.6 g/L	0.3 ± 0.1 g/L	0.4 ± 0.1 g/L	14.5 ± 0.3 g/L	0.3 ± 0.1 g/L	9.5 ± 0.4 g/L	3.0 ± 0.1 g/L	0.54 ± 0.06 g/L	3.6 ± 0.3 g/L	0.8 ± 0.1 g/L	0.9 ± 0.1 g/L	85.8 ± 0.4 g/L	Concentration of levulinic acid [3]: 0.3 ± 0.1 g/L; Concentration of mannose [3]: 0.3 ± 0.1 g/L; Concentration of xylose [3]: 14.3 ± 0.7 g/L
N [NH4OH, ammonium hydroxide, reference compound]																					Concentration of Arabin. (arabinose) [4]: 0.2 ± 0.1 g/L; Concentration of Galact (galactose) [4]: 8.6 ± 0.1 g/L; Concentration of HMF (2-hydroxymethylfurfural) [4]: 1.6 ± 0.1 g/L; Concentration of Phen. (phenolic compounds) [4]: 0.60 ± 0.01 g/L; Concentration of acetic acid [4]: 3.2 ± 0.1 g/L; Concentration of formic acid [4]: 0.7 ± 0.1 g/L; Concentration of furfural [4]: 0.6 ± 0.1 g/L; Concentration of glucose [4]: 85.8 ± 0.4 g/L; Concentration of levulinic acid [4]: 0.2 ± 0.1 g/L; Concentration of mannose [4]: 0.3 ± 0.1 g/L; Concentration of xylose [4]: 12.6 ± 0.2 g/L
O=S([O-])[O-].[Na+].[Na+] [Sulphite, sodium sulphite]	did not lead to any formation of precipitates	0.2 ± 0.1 g/L	9.6 ± 0.7 g/L	2.9 ± 0.1 g/L	0.56 ± 0.04 g/L	3.1 ± 0.4 g/L	0.7 ± 0.1 g/L	1.0 ± 0.1 g/L	85.0 ± 0.2 g/L	0.3 ± 0.1 g/L	0.3 ± 0.1 g/L	14.1 ± 0.3 g/L	0.2 ± 0.1 g/L	9.6 ± 0.1 g/L	3.0 ± 0.1 g/L	0.63 ± 0.01 g/L	3.3 ± 0.1 g/L	0.7 ± 0.1 g/L	1.0 ± 0.1 g/L	85.6 ± 0.2 g/L	Concentration of levulinic acid [3]: 0.3 ± 0.1 g/L; Concentration of mannose [3]: 0.4 ± 0.1 g/L; Concentration of xylose [3]: 14.3 ± 0.1 g/L

Read-outs that look alike come from different tables or passages of the source.
